Laboratory results published in PubChem BioAssay AID180 (DTP/NCI, 2004).
The list is a part of this screen's results and no random one: it gathers tests that were run many times, whatever their T/C, doses with no T/C, and many T/C values between a quarter and a half above the control. Further doses and runs are listed elsewhere. T/C is the treated group as % of the vehicle group. Schedules are NCI's codes, taken here to give the interval after Q, in days (D) or hours (H), and the number of doses after X. Some T/C values carry the count of animals alive at the toxicity check (mostly the fifth day); where none is given, no animal had died by that day. Some entries were tested several times; the values are given in rising order. Some entries give survivors of the animals treated and no T/C: the source files T/C as zero there, which appears to mark a toxic dose or a test without result, not a measured value. Survivors were counted at the toxicity check, usually on the fifth day, unless a day is given; later deaths do not show.

Tested on: BDF1 mice, Adenocarcinoma 755 s.c., tumor weight T/C
Assay: NCI In Vivo Anticancer Drug Screen. Data for tumor model Adenocarcinoma 755 (subcutaneous) in B6D2F1 (BDF1) mice
Settings: T/C endpoint: mean tumor weight, higher T/C = larger tumour; for T/C: evaluated on day 12
Summary of the method: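 Transplantable tumor implanted; mice dosed with compound or vehicle; survival or tumor size recorded; ratio of treated to vehicle control reported.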

[1] = dose: 400.0 mg/kg/injection, schedule: Q01DX011 (ip), vehicle: saline
[2] = dose: 8.0 mg/kg/injection, schedule: Q01DX011 (ip), vehicle: saline
[3] = dose: 60.0 mg/kg/injection, schedule: Q01DX011 (sc), vehicle: steroid suspending solution
[4] = dose: 100.0 mg/kg/injection, schedule: Q01DX011 (ip), vehicle: saline

Compound: S=c1nc[nH]c2c1ncn2C1CCCCC1
- T/C (dose: 47.0 mg/kg/injection, schedule: Q01DX011 (ip), vehicle: carboxymethylcellulose (CMC)): 53, 82 [9 of 10 alive], 97, 102 % of control
- T/C (dose: 94.0 mg/kg/injection, schedule: Q01DX011 (ip), vehicle: carboxymethylcellulose (CMC)): 75 [8 of 10 alive], 82, 98, 102 % of control [9 of 10 alive]
- T/C (dose: 94.0 mg/kg/injection, schedule: Q01DX011 (oral), vehicle: carboxymethylcellulose (CMC)): 142 % of control
- T/C (dose: 188.0 mg/kg/injection, schedule: Q01DX011 (ip), vehicle: carboxymethylcellulose (CMC)): 81, 82, 86, 117 % of control
- T/C (dose: 376.0 mg/kg/injection, schedule: Q01DX011 (ip), vehicle: carboxymethylcellulose (CMC)): 71 [9 of 10 alive], 79, 105, 109 % of control [8 of 10 alive]

Compound: OCC1OC(n2cnc3c(I)ncnc32)C(O)C1O (configuration not stated)
- survivor count (dose: 300.0 mg/kg/injection, schedule: Q01DX011 (ip), vehicle: saline): 4 of 10
- survivor count [1]: 5 of 10

Compound: CCCCn1cnc2c(=S)nc(N)[nH]c21
- survivor count (dose: 5.0 mg/kg/injection, schedule: Q01DX011 (ip), vehicle: olive oil, sesame oil, peanut oil): 4 of 10

Compound: Nc1ncnc2c1ncn2CCN(CCO)CCO
- T/C (dose: 75.0 mg/kg/injection, schedule: Q01DX011 (ip), vehicle: saline): 146 % of control

Compound: CCCCOP(=O)(N1CC1C)N1CC1C (configuration not stated)
- T/C (dose: 4.0 mg/kg/injection, schedule: Q01DX011 (ip), vehicle: saline): 59 [8 of 10 alive], 60, 84 [9 of 10 alive], 157, 170 % of control
- T/C [2]: 39, 60, 96, 110 % of control
- survivor count [2]: 6 of 10
- survivor count (dose: 32.0 mg/kg/injection, schedule: Q01DX011 (ip), vehicle: saline): 3 of 10

Compound: CN(N=O)C(N)=O
- T/C (dose: 3.16 mg/kg/injection, schedule: Q01DX011 (ip), vehicle: carboxymethylcellulose (CMC)): 138 % of control [9 of 10 alive]

Compound: Cc1ccc(N2CCN(CCCN3CCN(c4ccccc4Cl)CC3)CC2)cc1
- survivor count (dose: 90.0 mg/kg/injection, schedule: Q01DX011 (ip), vehicle: other): 3 of 10
- survivor count (dose: 180.0 mg/kg/injection, schedule: Q01DX011 (ip), vehicle: carboxymethylcellulose (CMC)): 0 of 10
- survivor count (dose: 180.0 mg/kg/injection, schedule: Q01DX011 (ip), vehicle: methylcellulose (MC)): 4 of 10

Compound: CC1(C)O[C@@H]2C[C@H]3[C@@H]4CCC5=CC(=O)C=C[C@]5(C)[C@@]4(F)[C@@H](O)C[C@]3(C)[C@]2(C(=O)CO)O1
- survivor count (dose: 10.0 mg/kg/injection, schedule: Q01DX011 (sc), vehicle: steroid suspending solution): 1 of 10
- survivor count (dose: 12.0 mg/kg/injection, schedule: Q01DX011 (sc), vehicle: steroid suspending solution): 1 of 12
- survivor count (dose: 15.0 mg/kg/injection, schedule: Q01DX011 (sc), vehicle: steroid suspending solution): 4 of 10
- survivor count (dose: 30.0 mg/kg/injection, schedule: Q01DX011 (sc), vehicle: steroid suspending solution): 0 of 10
- survivor count [3]: 0 of 10

Compound: CCSc1ncc(Br)c(Sc2nc(N)nc3nc[nH]c23)n1
- survivor count (dose: 16.0 mg/kg/injection, schedule: Q01DX011 (ip), vehicle: carboxymethylcellulose (CMC)): 0 of 10

Compound: Cn1c(=O)c2c(nc(C(O)(c3ccccc3)c3ccccc3)n2C)n(C)c1=O
- survivor count (dose: 150.0 mg/kg/injection, schedule: Q01DX011 (ip), vehicle: methylcellulose (MC)): 6 of 10
- survivor count (dose: 300.0 mg/kg/injection, schedule: Q01DX011 (ip), vehicle: methylcellulose (MC)): 2 of 10

Compound: CCCCNC(=O)c1n[se]nc1NC(N)=O
- survivor count (dose: 75.0 mg/kg/injection, schedule: Q01DX011 (ip), vehicle: carboxymethylcellulose (CMC)): 0 of 10

Compound: Cc1cnc(SCc2ccccc2Cl)nc1N(C)C
- survivor count (dose: 31.0 mg/kg/injection, schedule: Q01DX011 (ip), vehicle: methylcellulose (MC)): 6 of 10
- survivor count (dose: 62.0 mg/kg/injection, schedule: Q01DX011 (ip), vehicle: methylcellulose (MC)): 6 of 10
- survivor count (dose: 250.0 mg/kg/injection, schedule: Q01DX011 (ip), vehicle: methylcellulose (MC)): 4 of 10

Compound: Nc1nc(N)c(N=O)c(Nc2ccc(Br)cc2)n1
- survivor count (dose: 175.0 mg/kg/injection, schedule: Q01DX011 (ip), vehicle: methylcellulose (MC)): 4 of 10 and 6 of 10
- survivor count (dose: 350.0 mg/kg/injection, schedule: Q01DX011 (ip), vehicle: methylcellulose (MC)): 4 of 10

Compound: Nc1nc(SCc2ccccc2)c2[nH]cnc2n1
- T/C (dose: 0.37 mg/kg/injection, schedule: Q01DX011 (im), vehicle: carboxymethylcellulose (CMC)): 139 % of control
- T/C (dose: 0.75 mg/kg/injection, schedule: Q01DX011 (im), vehicle: carboxymethylcellulose (CMC)): 137 % of control
- survivor count (dose: 15.0 mg/kg/injection, schedule: Q01DX011 (ip), vehicle: carboxymethylcellulose (CMC)): 6 of 10
- survivor count (dose: 32.0 mg/kg/injection, schedule: Q01DX011 (ip), vehicle: carboxymethylcellulose (CMC)): 1 of 10
- survivor count (dose: 48.0 mg/kg/injection, schedule: Q01DX006 (iv), vehicle: carboxymethylcellulose (CMC)): 4 of 10
- survivor count (dose: 64.0 mg/kg/injection, schedule: Q01DX006 (iv), vehicle: carboxymethylcellulose (CMC)): 1 of 10
- survivor count (dose: 64.0 mg/kg/injection, schedule: Q01DX011 (im), vehicle: carboxymethylcellulose (CMC)): 1 of 10

Compound: CCN(CC)CCOc1ccc(/C=N/Nc2nc3c(c(=O)n(C)c(=O)n3C)n2C)cc1
- survivor count (dose: 480.0 mg/kg/injection, schedule: Q01DX011 (ip), vehicle: carboxymethylcellulose (CMC)): 5 of 10

Compound: c1ccn(-c2nc(-n3cccc3)nc(-n3cccc3)n2)c1
- survivor count (dose: 500.0 mg/kg/injection, schedule: Q01DX011 (ip), vehicle: carboxymethylcellulose (CMC)): 1 of 10

Compound: CCCn1cnc2c(SCCc3ccccc3)nc(N)nc21
- survivor count (dose: 400.0 mg/kg/injection, schedule: Q01DX011 (ip), vehicle: methylcellulose (MC)): 6 of 10

Compound: Nc1ncnc2c1ccn2C1OC(CO)C(O)C1O (configuration not stated)
- survivor count (dose: 1.5 mg/kg/injection, schedule: Q01DX011 (ip), vehicle: carboxymethylcellulose (CMC)): 3 of 10

Compound: CC1(O)CC([CH2][Hg][I])OC([CH2][Hg][I])C1 (configuration not stated)
- survivor count (dose: 100.0 mg/kg/injection, schedule: Q01DX011 (ip), vehicle: carboxymethylcellulose (CMC)): 4 of 10
- survivor count (dose: 200.0 mg/kg/injection, schedule: Q01DX011 (ip), vehicle: carboxymethylcellulose (CMC)): 0 of 10

Compound: O=CC1CO1 (configuration not stated)
- survivor count [4]: 0 of 10

Compound: CCOC(=O)c1cc[c]([Sb](=[O])([OH])[OH])cc1
- T/C (dose: 25.0 mg/kg/injection, schedule: Q01DX011 (ip), vehicle: methylcellulose (MC)): 140 % of control
- survivor count (dose: 30.0 mg/kg/injection, schedule: Q01DX011 (ip), vehicle: carboxymethylcellulose (CMC)): 6 of 10
- survivor count (dose: 60.0 mg/kg/injection, schedule: Q01DX011 (ip), vehicle: carboxymethylcellulose (CMC)): 2 of 10
- survivor count (dose: 200.0 mg/kg/injection, schedule: Q01DX011 (ip), vehicle: methylcellulose (MC)): 2 of 10

Compound: CCCCSc1ncnc2nc[nH]c12
- survivor count (dose: 250.0 mg/kg/injection, schedule: Q01DX011 (ip), vehicle: carboxymethylcellulose (CMC)): 2 of 10
- survivor count (dose: 1000.0 mg/kg/injection, schedule: Q01DX011 (ip), vehicle: carboxymethylcellulose (CMC)): 0 of 10

Compound: CC(=O)NCCSC(=O)C(=O)SCCNC(C)=O
- T/C [4]: 136 % of control [9 of 10 alive]
- survivor count [1]: 0 of 10

Compound: C=CCC1(CCC)C(=O)NC(=O)NC1=O
- survivor count (dose: 70.0 mg/kg/injection, schedule: Q01DX011 (ip), vehicle: methylcellulose (MC)): 6 of 10
- survivor count (dose: 140.0 mg/kg/injection, schedule: Q01DX011 (ip), vehicle: methylcellulose (MC)): 3 of 10 and 5 of 10

Compound: CC(=O)OCC(=O)[C@@]1(O)CC[C@H]2[C@@H]3CCC4=CC(=O)[C@H](C)C[C@]4(C)[C@@]3(F)[C@@H](O)C[C@@]21C
- survivor count [3]: 4 of 10

Compound: CC(=O)O[C@]1(C(C)=O)CC[C@H]2[C@@H]3C[C@H](C)C4=CC(=O)CC[C@]4(C)[C@H]3CC[C@@]21C
- T/C (dose: 25.0 mg/kg/injection, schedule: Q01DX011 (sc), vehicle: steroid suspending solution): 127 % of control
